{"source": "paper PMC6096990", "tested_on": "cytochrome c", "test": "optical microfiber interferometric aptasensor (wavelength shift, AFM)", "conditions": "aptamer immobilized on Ag@RGO nanointerface, sensor LOD 6.82e-17 M (not a Kd); 5'-SH (thiol); Optical microfiber in microchannel chip; Tris buffer pH 7.4 listed as reagent; commercial protein; single-stranded DNA", "note": "For at least one entry, the source does not settle the construct or the ends of the probe.", "data": [{"sequence": "CCCTGTCTGGGGCCGACCGGCGCATTGGGTACGTTGTTGC [cyt c ssDNA aptamer]", "values": [{"measurement": "binding result", "result": "binds"}]}]}
